Record: PubChem BioAssay AID1159595 (NIAID, 2016)
Assay: 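How silencing each gene alters a Tnf reporter after TLR2 stimulation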 (primary screen). Cell system: mouse RAW264.7 macrophage reporter cells. Reagents: single siRNA against mouse genes. Timing: assayed 48 to 72 hours after siRNA transfection; ligand applied for 16 hours. Conditions: Pam3CSK4 (TLR2 ligand) for 16 hours before fixation; dose not given. Measured: 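Nuclear mCherry from a Tnf promoter reporter imaged after 16 h Pam3CSK4, 48–72 h post-transfection; background subtracted, plate median/MAD normalised, robust z-scores averaged over replicates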. Reading the numbers: Tnf reporter z-score (replicate mean): higher = stronger Tnf promoter reporter signal than negative control wells. Call rule: 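An siRNA is active when its replicate-mean z-score is -1.5 or lower or 1.5 or higher (activity score at least 50); activity graded at absolute z 1, 1.5, 2 and 2.5; calls apply to single siRNAs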. Meaning of the calls: active = strong change (up or down); inactive = little change.
Shown is one part, drawn at random, of 756 deposited reagents. In the full data, 115 (15%) are marked active. 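Active calls cover both lowered and raised reporter signal; each score refers to one siRNA rather than a whole gene.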 The numbers tell different reagents against one gene apart. Not given: the amount of reagent.

gene symbol	reagent no.	Tnf reporter z-score (replicate mean)	Call
Nfkbie	1	-1.07	inactive
Nfkbie	2	-0.428	inactive
Nfkbie	3	0.157	inactive
Nfkbie	4	-0.167	inactive
Nfkbie	5	-0.0646	inactive
Nfkbie	6	0.364	inactive
Ifnar1	1	-1.13	inactive
Ifnar1	2	0.0381	inactive
Ifnar1	3	-0.986	inactive
Ifnar1	4	1.6	active
Ifnar1	5	-1.18	inactive
Ifnar1	6	-1.61	active
Ly86	1	-0.000627	inactive
Ly86	2	0.111	inactive
Ly86	3	-0.255	inactive
Ly86	4	1.16	inactive
Ly86	5	1.18	inactive
Ly86	6	-0.854	inactive
Ptpn6	1	0.753	inactive
Ptpn6	2	0.24	inactive
Ptpn6	3	-0.606	inactive
Ptpn6	4	-0.737	inactive
Ptpn6	5	-1.11	inactive
Ptpn6	6	-3.6	active
Relb	1	-0.161	inactive
Relb	2	0.29	inactive
Relb	3	-1.5	active
Relb	4	0.836	inactive
Relb	5	-2.46	active
Relb	6	-1.29	inactive
Irf9	1	1.31	inactive
Irf9	2	0.896	inactive
Irf9	3	0.0595	inactive
Irf9	4	1.09	inactive
Irf9	5	1.79	active
Irf9	6	-1.1	inactive
Irak1	1	-0.516	inactive
Irak1	2	0.59	inactive
Irak1	3	-0.544	inactive
Irak1	4	-0.00972	inactive
Irak1	5	-0.0772	inactive
Irak1	6	-0.46	inactive
Dusp2	1	-0.599	inactive
Dusp2	2	-2.03	active
Dusp2	3	2.8	active
Dusp2	4	0.837	inactive
Dusp2	5	-0.294	inactive
Dusp2	6	-0.441	inactive
Elk1	1	-1.33	inactive
Elk1	2	0.984	inactive
Elk1	3	-0.0338	inactive
Elk1	4	-3.67	active
Elk1	5	-2.19	active
Elk1	6	-2	active
Akt3	1	-1.36	inactive
Akt3	2	0.909	inactive
Akt3	3	-1.69	active
Akt3	4	-0.731	inactive
Akt3	5	-0.705	inactive
Akt3	6	-1.49	inactive

Next part, starting with the last 15 of the part before.
gene symbol	reagent no.	Tnf reporter z-score (replicate mean)	Call
Dusp2	4	0.837	inactive
Dusp2	5	-0.294	inactive
Dusp2	6	-0.441	inactive
Elk1	1	-1.33	inactive
Elk1	2	0.984	inactive
Elk1	3	-0.0338	inactive
Elk1	4	-3.67	active
Elk1	5	-2.19	active
Elk1	6	-2	active
Akt3	1	-1.36	inactive
Akt3	2	0.909	inactive
Akt3	3	-1.69	active
Akt3	4	-0.731	inactive
Akt3	5	-0.705	inactive
Akt3	6	-1.49	inactive
Tab1	1	0.386	inactive
Tab1	2	-1.5	inactive
Tab1	3	-0.431	inactive
Tab1	4	-1.11	inactive
Tab1	5	1.42	inactive
Tab1	6	-0.845	inactive
Pik3cb	1	0.0977	inactive
Pik3cb	2	-2.19	active
Pik3cb	3	-0.224	inactive
Pik3cb	4	0.866	inactive
Pik3cb	5	-1.72	active
Pik3cb	6	-1.55	active
Ep300	1	-2.25	active
Ep300	2	-0.791	inactive
Ep300	3	1.34	inactive
Ep300	4	-0.031	inactive
Ep300	5	0.107	inactive
Ep300	6	-0.746	inactive
Il1rl1	1	1.03	inactive
Il1rl1	2	-1.04	inactive
Il1rl1	3	-0.961	inactive
Il1rl1	4	-0.549	inactive
Il1rl1	5	-1.14	inactive
Il1rl1	6	-0.0693	inactive
Tlr5	1	-0.988	inactive
Tlr5	2	1.38	inactive
Tlr5	3	0.495	inactive
Tlr5	4	0.631	inactive
Tlr5	5	-0.453	inactive
Tlr5	6	0.0291	inactive
Ube2n	1	-0.248	inactive
Ube2n	2	-0.532	inactive
Ube2n	3	-0.536	inactive
Ube2n	4	-0.34	inactive
Ube2n	5	0.0938	inactive
Ube2n	6	-0.654	inactive
Map2k2	1	0.398	inactive
Map2k2	2	-0.813	inactive
Map2k2	3	-0.894	inactive
Map2k2	4	-0.694	inactive
Map2k2	5	-0.92	inactive
Map2k2	6	-1.11	inactive
Il12a	1	0.492	inactive
Il12a	2	-1.87	active
Il12a	3	-0.93	inactive
Il12a	4	-0.525	inactive
Il12a	5	-1.52	active
Il12a	6	0.563	inactive
Ifnar2	1	-1.14	inactive
Ifnar2	2	-0.485	inactive
Ifnar2	3	-0.099	inactive
Ifnar2	4	0.219	inactive
Ifnar2	5	-0.029	inactive
Ifnar2	6	-1.22	inactive
